# Data as given in PubChem BioAssay AID1259405 (NCATS, 2018)
# Assay: 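Knock-downs that lift recombinant protein yield in hamster ovary cells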 (primary screen)
# Cells: Chinese hamster CHO-K1 ovary cells with stable secreted eGFP expression
# Reagents: single siRNA against mouse genes, 0.8 pmol siRNA per well (2 µl of 400 nM stock)
# Time to read-out: 3 days
# Measured: 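Percent of the per-plate non-targeting control median for intracellular GFP per well by laser scanning cytometry and for cell viability by ATP luminescence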
# Reading the numbers: GFP, % of control: higher = more GFP per well, higher productivity; viability (ATP), % of control: higher = more viable cells (more ATP)
# Call rule: 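a knock-down is called active if GFP reaches 120% or more of non-targeting control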
# The whole screen tested about 50,000 reagents; below is a random part of them. About 4,000 of all reagents (8%) count as active. 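Mouse siRNA library applied to hamster cells; one well for each siRNA.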 A number with no mark means an inactive call. The numbers tell different reagents against one gene apart. No sequences are given here.
"GFP, % of control","viability (ATP), % of control",target,reagent
66.9,89.2,Osbpl5,1
89.9,65.3,Osbpl5,2
220 (active),168,Osbpl5,3
83.8,103,Osbpl5,4
115,100,Osbpl5,5
104,92.1,Osbpl5,6
97.1,88,Ints3,1
91,33.2,Ints3,2
90.2,96.1,Ints3,3
36.9,26.3,Ptger2,1
87.5,87.7,Ptger2,2
70.6,71.7,Ptger2,3
78.7,108,Ddb2,1
48,45.2,Ddb2,2
105,72.8,Ddb2,3
65.2,71,Tmem59,1
104,60.6,Tmem59,2
80.5,67.8,Tmem59,3
88.6,109,Slc9d1,1
81.7,90.6,Slc9d1,2
166 (active),77,Serbp1,1
148 (active),80.7,Serbp1,2
77.1,32.2,Serbp1,3
100,73.8,Cd9,1
124 (active),93,Cd9,2
76.8,77.4,Cd9,3
68.1,46.7,Saa1,1
84.5,84.5,Saa1,2
118,89.2,Saa1,3
209 (active),73.1,Znhit3,1
102,69.4,Znhit3,2
64.7,92.8,Znhit3,3
76.7,73.7,Adck2,1
115,99.4,Adck2,2
109,133,Adck2,3
84.2,91.8,Snrnp70,1
68.8,82.7,Snrnp70,2
61.5,63.4,Snrnp70,3
82.5,66.4,Ugcg,1
90.9,68.4,Ugcg,2
97.4,95.5,Ugcg,3
108,64.8,Sema6b,1
57.3,66.6,Sema6b,2
78.9,59.3,Sema6b,3
57.8,75.9,Pabir1,1
89.8,88,Pabir1,2
46.8,69.2,Pabir1,3
210 (active),80.4,Or10ab4,1
46.2,54.4,Or10ab4,2
80.8,101,Or10ab4,3
56.1,63.4,Gpha2,1
75.3,73.6,Gpha2,2
54.3,33.8,Gpha2,3
55,40,Cep72,1
113,97.8,Cep72,2
87.4,115,Cep72,3
56.2,74.9,Gjb2,1
80.3,91.2,Gjb2,2
91.4,116,Gjb2,3
86.1,79.4,Nfu1,1
81.8,78.1,Nfu1,2
111,101,Nfu1,3
131 (active),119,Mpo,1
79.3,59.6,Mpo,2
109,64.3,Mpo,3
97.2,99.1,Pcsk7,1
99.1,95,Pcsk7,2
29.4,38.6,Pcsk7,3
42.8,34.2,Mmp1b,1
91.1,99.9,Mmp1b,2
73.4,73.3,Mmp1b,3
93.4,59.6,Cdk7,1
77.1,38,Pebp4,1
76.3,79.4,Pebp4,2
41.6,40.7,Pebp4,3
66,53,Cacna1b,1
79.1,48.9,Cacna1b,2
73.3,63.1,Cacna1b,3
78.6,112,Trnt1,1
72.1,99.9,Trnt1,2
63.5,62.1,Cd80,1
92.6,76.1,Cd80,2
64.8,68.2,Cd80,3
91,95.3,Smpd1,1
58.5,55.1,Smpd1,2
80.2,69,Smpd1,3

Records listed so far called active (7):
"GFP, % of control","viability (ATP), % of control",target,reagent
220 (active),168,Osbpl5,3
166 (active),77,Serbp1,1
148 (active),80.7,Serbp1,2
124 (active),93,Cd9,2
209 (active),73.1,Znhit3,1
210 (active),80.4,Or10ab4,1
131 (active),119,Mpo,1
